In US20080196124:
The exact form of at least one protein or probe is not confirmed. A negative result means that nothing was seen under these conditions.

Amino acid sequences for entries named in this document (tags omitted). Chains listed by the source or under a name are the forms on record and can include a tag or linker.
UniProt Q9SN12, other isoform, or with tags, fused parts or gaps: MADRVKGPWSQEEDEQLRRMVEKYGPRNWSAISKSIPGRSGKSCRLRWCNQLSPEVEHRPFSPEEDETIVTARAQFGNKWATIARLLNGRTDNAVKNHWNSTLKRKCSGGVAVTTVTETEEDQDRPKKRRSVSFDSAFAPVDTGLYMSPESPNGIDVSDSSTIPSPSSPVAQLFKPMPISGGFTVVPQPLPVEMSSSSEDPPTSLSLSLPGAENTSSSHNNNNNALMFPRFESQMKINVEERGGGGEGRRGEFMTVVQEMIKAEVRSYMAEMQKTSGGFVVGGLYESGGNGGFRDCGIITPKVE

Molecular target: AtMyb77 (MYB77) (Arabidopsis thaliana) (UniProt Q9SN12)
Experiment: EMSA
Conditions: ethylene-responsive element specificity control; same buffer; purified recombinant protein; protein details: His tag (pET28, E. coli BL21(DE3), Ni-NTA); label: 32P end label

“ATAAAGAGCCGCCACTAAAATAAGCTT (double strand) [GCC box]”: no binding.
